Patent publication US12569532B2, “Brain function regulating agent, and food or beverage product containing same” (NITTA GELATIN INC., priority 2019, dated 2026)
For at least one compound, name, drawing or mass did not settle the structure.

System: cerebellar granule cells (CGC)
Assay: Evaluation Test 2: viability of primary-cultured CGC by MTT assay (differentiation promoting action)
Settings: KCl 15 mM, MTT day 7, percent of control sample with KCl 25 mM

NC(=O)[C@@H]1CCCN1C(=O)[C@H](Cc1cnc[nH]1)NC(=O)[C@@H]1CCC(=O)N1 [TRH]
Viability (%) (10 μM added days 1 and 4): 59.3% | Viability (%) (100 μM added days 1 and 4): 52% | Viability (%) (1000 μM added days 1 and 4): 60.1%
